Results: paper PMC10582130

Key:
Assay in all cases: split reporter; Bimolecular luciferase complementation (BiLC) in N. benthamiana leaves after Agrobacterium infiltration; nLUC and cLUC fusions; luciferin 1 mM, LUC activity monitored after 2 days
[1] = target: T1, Tetraspanin 8 (TET8), full length, fused to cLUC (Arabidopsis thaliana) (UniProt Q8S8Q6)
T1 sequence: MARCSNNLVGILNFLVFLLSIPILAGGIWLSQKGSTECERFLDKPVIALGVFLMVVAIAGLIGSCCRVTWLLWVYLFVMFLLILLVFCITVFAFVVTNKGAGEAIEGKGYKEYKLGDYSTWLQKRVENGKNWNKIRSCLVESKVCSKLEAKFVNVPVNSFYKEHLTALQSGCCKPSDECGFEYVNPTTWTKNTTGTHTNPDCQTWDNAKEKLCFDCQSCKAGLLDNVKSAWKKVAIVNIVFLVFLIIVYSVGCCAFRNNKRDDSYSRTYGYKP

[2] = target: T2, Patellin 2 (PATL2), full length, fused to nLUC (Arabidopsis thaliana) (UniProt Q56ZI2)
T2 sequence: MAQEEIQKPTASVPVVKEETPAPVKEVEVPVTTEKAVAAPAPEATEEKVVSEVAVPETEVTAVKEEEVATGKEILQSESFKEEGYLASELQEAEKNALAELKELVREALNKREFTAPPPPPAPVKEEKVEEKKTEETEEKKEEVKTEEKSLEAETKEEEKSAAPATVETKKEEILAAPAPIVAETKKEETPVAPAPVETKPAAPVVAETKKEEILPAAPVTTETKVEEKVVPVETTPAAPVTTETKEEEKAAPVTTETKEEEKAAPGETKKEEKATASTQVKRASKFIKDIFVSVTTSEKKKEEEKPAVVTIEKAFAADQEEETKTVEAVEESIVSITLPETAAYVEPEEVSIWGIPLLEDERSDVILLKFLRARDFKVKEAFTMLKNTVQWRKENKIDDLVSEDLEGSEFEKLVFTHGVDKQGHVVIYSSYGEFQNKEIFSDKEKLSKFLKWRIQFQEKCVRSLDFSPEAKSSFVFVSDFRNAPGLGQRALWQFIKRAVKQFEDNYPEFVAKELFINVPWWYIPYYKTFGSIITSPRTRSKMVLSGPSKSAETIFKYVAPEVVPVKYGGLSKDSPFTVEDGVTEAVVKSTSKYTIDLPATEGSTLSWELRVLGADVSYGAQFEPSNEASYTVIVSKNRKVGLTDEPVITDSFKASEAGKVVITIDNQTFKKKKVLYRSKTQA

[3] = target: T3, Choline transporter-like 1 (CTL1), full length, fused to nLUC (Arabidopsis thaliana) (UniProt Q94AN2)
T3 sequence: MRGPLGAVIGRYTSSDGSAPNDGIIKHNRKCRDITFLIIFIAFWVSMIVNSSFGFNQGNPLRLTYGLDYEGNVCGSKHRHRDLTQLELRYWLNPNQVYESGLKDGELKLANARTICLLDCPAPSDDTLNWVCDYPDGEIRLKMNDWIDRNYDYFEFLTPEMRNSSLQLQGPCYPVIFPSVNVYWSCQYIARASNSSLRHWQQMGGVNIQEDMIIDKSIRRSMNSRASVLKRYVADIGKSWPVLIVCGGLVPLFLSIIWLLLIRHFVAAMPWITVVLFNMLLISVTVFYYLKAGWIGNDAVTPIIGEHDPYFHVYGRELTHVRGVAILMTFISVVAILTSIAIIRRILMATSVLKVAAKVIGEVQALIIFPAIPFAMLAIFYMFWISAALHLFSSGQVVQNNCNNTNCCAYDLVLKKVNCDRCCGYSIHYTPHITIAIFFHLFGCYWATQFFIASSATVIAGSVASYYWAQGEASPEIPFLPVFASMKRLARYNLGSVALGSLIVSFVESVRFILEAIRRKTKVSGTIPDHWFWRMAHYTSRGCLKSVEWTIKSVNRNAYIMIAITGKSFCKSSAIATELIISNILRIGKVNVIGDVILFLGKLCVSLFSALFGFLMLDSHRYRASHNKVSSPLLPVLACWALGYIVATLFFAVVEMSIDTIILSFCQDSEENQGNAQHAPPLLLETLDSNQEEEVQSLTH

Row | binding [1] | binding [2] | binding [3] | Substance
1 | binds |  |  | HARP1 fused to the amino-terminal half of luciferase (nLUC) (Helicoverpa armigera)
2 |  | binds | binds | HARP1 fused to the carboxyl-terminal half of luciferase (cLUC) (Helicoverpa armigera)

No constants are given. Whether binding was seen depends on the method and setting. In cells and extracts the contact can be indirect. A result given as binding can be weak or reduced; the word gives no strength. Tags and fused reporters may be left off the sequences shown.
